Data reported in PubChem BioAssay AID1688 (National Center for Advancing Translational Sciences (NCATS), 2009).
Out of some 220,000 compounds screened, about 2,400 (1.1%) were called active. The shares of active, inactive and inconclusive entries below differ from those in the screen. Calls come from the whole dose curve; as a rule, active = well fitted inhibition curve with a large enough effect; inconclusive = small, poorly fitted or top-dose-only effect, or effect the other way; inactive = no such curve, though single readings can be large or run the other way. Potencies beside an inconclusive call are fits to weak or partial responses and may not hold up.

Experiment: qHTS Multiplex Assay to Identify Dual Action Probes in a Cell Model of Huntington: Aggregate Formation (GFP); note: nearly all actives have a fitted effect of over 60% in size
Settings: PC12 HttQ103-GFP aggregates, Acumen cytometry, 40 h; activity change, negative = inhibition: at 46.1 µM (top of the series) unless noted
Method in brief: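 Inducible Q103 Huntingtin exon 1–GFP PC12 line, 1500 cells/well in phenol red free DMEM with 5% equine and 5% calf serum. Tebufenozide 100 nM induced expression; compounds titrated; aggregates quantified by cytometry.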
% is set by controls: 0 for no effect and ±100 for the full control effect; potency is the fitted concentration of half-maximal effect.

SMILES | activity change, negative = inhibition | Potency
COCCNC(=O)C1(C)Oc2ccccc2NC1=O (stereo not drawn) | inactive: 1.07% | –
Cc1cccc(-n2cc[nH]c2=S)c1C | – | inconclusive: 3.55 µM [inhibitor, single point]
CCOC(=O)c1sc(Nc2ccc(OCC)cc2)nc1C | inactive: 8.03% [at 9.22 µM] | –
COc1ccc(O)c(C(=O)c2coc(=N)c(C(=O)Nc3ccc(SC(F)F)cc3)c2)c1 | – | inconclusive: 35.5 µM [inhibitor, single point]
Cn1c(SCC(=O)N2CCCc3ccccc32)nnc1-c1c[nH]c2ccccc12 | inactive: -24.6% | –
Nc1nccc(-c2ccc(-n3cnc4ccccc43)cc2)n1 | – | inconclusive: 1 µM [inhibitor, full curve, poor fit]
O=C(Nc1nc(-c2ccccc2)cs1)c1cccs1 | – | inconclusive: 31.6 µM [inhibitor, single point]
Cc1cnc(NC(=O)Cc2c[nH]c3ccccc23)s1 | – | inconclusive: 17.8 µM [inhibitor, single point]
CC1CCc2sc(C(=O)NN)cc2C1 (stereo not drawn) | inactive: -1.04% | –
CCOC(=O)c1cccc(NC(=O)COc2ccc([N+](=O)[O-])cc2)c1 | inactive: 13% | –
CC(=O)Oc1c(C)cc(Cl)cc1C(=O)Nc1ccc([N+](=O)[O-])cc1Cl | – | active: 0.251 µM
Cc1c(C(=O)O/N=C(\N)c2ccccn2)cccc1[N+](=O)[O-] | inactive: 8.99% [at 9.22 µM] | –
Cc1nn(Cc2ccc(Cl)cc2)c(C)c1NC(=O)c1cc(-c2ccc3c(c2)OCO3)on1 | – | inconclusive: 10 µM [inhibitor, partial curve]
O=C(N/N=C/c1c(Nc2cccc(C(F)(F)F)c2)nc2ccccn2c1=O)c1ccccc1[N+](=O)[O-] | – | inconclusive: 35.5 µM [inhibitor, single point]
COc1ccccc1NC(=O)CN(c1ccc(C)cc1)S(=O)(=O)c1c(C)n[nH]c1C | – | inconclusive: 35.5 µM [inhibitor, single point]
O=C(NCCc1c[nH]c2ccccc12)C1CCC(Cn2c(=S)[nH]c3ccccc3c2=O)CC1 (stereo not drawn) | – | inconclusive: 35.5 µM [inhibitor, single point]
CCSc1nc(N2CCOCC2)c2c(c1C#N)CCCC2 | – | inconclusive: 8.91 µM [inhibitor, partial curve]
O=C1c2cccnc2C(O)N1Cc1ccccc1 (stereo not drawn) | inactive: 7.47% | –
CCN(CC)CCOc1ccc(-c2nc3cc(Cl)ccc3s2)cc1 | – | inconclusive: 35.5 µM [inhibitor, single point]
Cc1cc(C)n(/N=C/c2ccc(C(C)C)cc2)c(=O)c1C#N | inactive: -6.04% | –
Cc1ccc(C(=O)NC(=S)Nc2ccc(Oc3ccc(Cl)cc3)cc2)cc1 | – | inconclusive: 12.6 µM [inhibitor, single point]
COc1ccccc1C(CCNS(=O)(=O)c1ccc(C)cc1)c1ccco1 (stereo not drawn) | – | inconclusive: 35.5 µM [inhibitor, single point]
O=C(CCN1CCC(c2ccccc2)C1)c1ccccc1 (stereo not drawn) | inactive: 5.93% | –
On1onc2c3cc(-c4ccccc4)nc3ccc21 | inactive: -13.9% | –
CCOc1cc(/C=N/Nc2cccc(C(=O)O)c2)ccc1OCC(=O)N1CCCCC1 | inactive: 3.64% | –
CCc1ccc(N/C(SCc2cccc(F)c2)=C(/C#N)C(=O)NCc2ccco2)cc1 | – | inconclusive: 35.5 µM [inhibitor, single point]

Three entries from above, ordered by molecular weight, rising:
SMILES | activity change, negative = inhibition | Potency
COCCNC(=O)C1(C)Oc2ccccc2NC1=O (stereo not drawn) | inactive: 1.07% | –
CC(=O)Oc1c(C)cc(Cl)cc1C(=O)Nc1ccc([N+](=O)[O-])cc1Cl | – | active: 0.251 µM
Cc1nn(Cc2ccc(Cl)cc2)c(C)c1NC(=O)c1cc(-c2ccc3c(c2)OCO3)on1 | – | inconclusive: 10 µM [inhibitor, partial curve]

Additional records.

SMILES | activity change, negative = inhibition | Potency
Cc1cccc(-n2nnnc2SC(C)C(=O)NCCC2=CCCCC2)c1 (stereo not drawn) | – | inconclusive: 35.5 µM [inhibitor, single point]
CCOC(=O)C(Oc1ccc2c(-c3ccccc3)cc(=O)oc2c1)c1ccccc1 (stereo not drawn) | – | inconclusive: 5.62 µM [inhibitor, single point]
CC(=O)N1CCc2cc(S(=O)(=O)NC3CCCc4ccccc43)ccc21 (stereo not drawn) | – | active: 7.08 µM
C/C(=N\OCC(=O)N/N=C/c1ccc(C)cc1O)c1cccs1 | – | inconclusive: 25.1 µM [inhibitor, single point]
CC1CCCCC1NC(=O)c1cncc(Br)c1 (stereo not drawn) | inactive: -31.6% | –
Cc1cc(C(=O)NCC(c2ccco2)N(C)C)no1 (stereo not drawn) | inactive: -0.896% | –
COc1ccc(CCn2c(N)c(C(=O)NCc3ccco3)c3nc4ccccc4nc32)cc1OC | – | inconclusive: 22.4 µM [inhibitor, single point]
FC(F)(F)c1cccc(-c2ccc(/C=N/Nc3nncc(-c4ccccc4)n3)o2)c1 | – | inconclusive: 0.562 µM [activator, full curve]
O=C1CC(N2CCCN(C3CC(=O)N(c4ccc(F)cc4)C3=O)CC2)C(=O)N1c1ccc(F)cc1 (stereo not drawn) | – | inconclusive: 25.1 µM [inhibitor, single point]
CCOC(=O)c1c(C)[nH]c(C(=O)N/N=C\c2ccccc2O)c1C | – | inconclusive: 2.51 µM [inhibitor, full curve]
CC1(C)C2(C#N)C(N)=NC3(OCCO3)C12C#N (stereo not drawn) | inactive: 15.2% | –
Cc1cc(F)ccc1S(=O)(=O)Nc1ccccc1C(=O)Nc1ccc2[nH]c(=O)[nH]c2c1 | – | inconclusive: 6.31 µM [activator, single point]
COc1ccc(-[n+]2c(C)cc(/C=C3\Sc4ccccc4N3C)cc2C)cc1 | – | active: 1.12 µM
CCOC(=O)c1[nH]c(C)c(C(=O)OCC(=O)Nc2sc3c(c2C#N)CCCCC3)c1C | – | inconclusive: 0.562 µM [activator, full curve]
CCN(CC)c1ccc(/C=N/NC(=O)c2ccc([N+](=O)[O-])cc2)cc1 | inactive: 11.1% | –
CC(=O)N=c1sc2ccccc2n1C | inactive: 15.4% | –
O=c1c2ccc(Cl)cc2nc(-c2cccc(C(F)(F)F)c2)n1O | – | inconclusive: 7.08 µM [inhibitor, partial curve]
Cc1ccc(-c2csc3nc(C)n(-n4c(C)ccc4C)c(=O)c23)o1 | – | inconclusive: 35.5 µM [activator, single point]
CCOC(=O)c1nc(C)n(-c2cc(OC)c(Cl)cc2Cl)n1 | inactive: -12.1% | –
CCN1C(=O)c2cccc3c(S(=O)(=O)Nc4ccccc4OC)ccc1c23 | inactive: 4.44% | –
CCc1cc(C(=O)NNC(=S)NC(C)c2ccccc2)cs1 (stereo not drawn) | – | active: 17.8 µM
COc1cc2c(cc1NC(=O)Nc1ccccc1)oc1ccccc12 | – | inconclusive: 35.5 µM [inhibitor, single point]
O=C(Nc1nccs1)c1sc2ccccc2c1Cl | – | inconclusive: 10 µM [inhibitor, partial curve]
NC(=S)c1cc2ccc(O)cc2oc1=O | inactive: -15.3% | –
C=C(C)COc1ccc(-c2ncncc2Oc2ccc(OC)cc2)c(O)c1 | – | inconclusive: 7.08 µM [inhibitor, partial curve]
COc1ccc(C)cc1Nc1cc(C)nc2ncnn12 | inactive: 9.42% | –

Laid out differently: results already given
Cc1ccc(C(=O)NC(=S)Nc2ccc(Oc3ccc(Cl)cc3)cc2)cc1
  Potency: inconclusive: 12.6 µM [inhibitor, single point]
COc1ccccc1C(CCNS(=O)(=O)c1ccc(C)cc1)c1ccco1 (stereo not drawn)
  Potency: inconclusive: 35.5 µM [inhibitor, single point]

The list goes on.

SMILES | activity change, negative = inhibition | Potency
Cc1ccc([N+](=O)[O-])cc1S(=O)(=O)N(C(=O)c1ccncc1)c1ccc2oc3c(c2c1)CCCC3 | – | active: 17.8 µM
O=C(c1ccco1)N1CCCN(C(=O)c2ccco2)CC1 | inactive: -0.564% | –
Cn1ccnc1C(=O)c1ccc(NN)c([N+](=O)[O-])c1 | – | inconclusive: 15.8 µM [inhibitor, single point]
O=C(COc1ccc2ccccc2c1)NCCc1ccc2c(c1)OCCO2 | – | inconclusive: 10 µM [inhibitor, single point]
Cc1cc(=O)n2ncnc2n1COCCO | – | inconclusive: 5.62 µM [inhibitor, single point]
CC(C)(C)OC(=O)NNC(=O)Nc1ccccc1C(F)(F)F | inactive: -11.3% | –
Cc1ccc(C)c(Cn2c(O)c(N=NC(=S)Nc3ccccc3F)c3ccccc32)c1 | inactive: -29% | –
CC(C)(CC(=O)O)CC(=O)Nc1ccc(Oc2ccc(C(C)(C)C)cc2)nc1 | inactive: -2.19% [at 9.22 µM] | –
Cn1c(=O)c2ncn(CC(=O)NC3CCCCCC3)c2n(C)c1=O | inactive: -6.13% | –
Nc1nc(-c2ccc([N+](=O)[O-])cc2)cs1 | inactive: -5.77% | –
O=C(c1nnsc1S(=O)c1ccc(Cl)cc1)N1CCOCC1 (stereo not drawn) | – | active: 11.2 µM
C=CCn1c(SCC(=O)N2CCc3ccccc3C2)nc2sc(CC)cc2c1=O | – | inconclusive: 12.6 µM [inhibitor, partial curve]
Cc1[nH]nc2c1C1(C(=O)N(Cc3ccc(Cl)cc3)c3ccccc31)C(C#N)=C(N)O2 (stereo not drawn) | inactive: 12.1% | –
CN(C)c1ccc(/C=N/N(Cc2ccccc2)c2ccccc2)cc1 | inactive: 0.998% | –
O=C(Cn1cnc2ccccc21)NCCCN1CCOCC1 | inactive: -11.5% | –
O=C(Nc1cccc(Cl)c1)C1CCCN(S(=O)(=O)c2ccc(F)cc2)C1 (stereo not drawn) | – | inconclusive: 15.8 µM [inhibitor, single point]
FC(F)(F)c1cnc(C(c2ccccn2)c2ncn[nH]2)c(Cl)c1 (stereo not drawn) | – | active: 12.6 µM
CCSCCOC(=O)C1=C(C)N(C)C(=O)NC1c1cc(OC)ccc1OC (stereo not drawn) | – | inconclusive: 3.16 µM [activator, single point]
O=C(N/N=C/c1c[nH]c2ccccc12)c1sc2ccccc2c1Cl | inactive: -15.5% | –
CC1(C)Cc2c(c(N3CCCC3)nc3sc4c(N5CCNCC5)ncnc4c23)CO1 | inactive: -5.36% [at 9.22 µM] | –
Cn1c(=O)cc(SCC(=O)NCC2CCCO2)c2ccccc21 (stereo not drawn) | inactive: -2.56% | –
O=C(NCC1CCCO1)C(c1cccs1)N(Cc1ccccc1)C(=O)c1ccc(-c2ccccc2)[nH]1 (stereo not drawn) | – | inconclusive: 14.1 µM [inhibitor, single point]
COc1cc(C)c(Cc2cnc(N)nc2N)cc1OC | inactive: 24.9% | –
CCCCOc1ccc(NC(=O)c2cc(F)c(F)cc2Cl)cc1 | – | inconclusive: 0.891 µM [inhibitor, partial curve]
Cc1cc(C)c2c(NC(=O)CCl)nn(C)c2n1 | – | inconclusive: 22.4 µM [inhibitor, single point]
Fc1ccc(Nc2ncnc3sc4c(c23)CCC4)cc1 | – | inconclusive: 20 µM [inhibitor, partial curve, poor fit]
